Values from PubChem BioAssay AID1259308 (NCATS, 2017).

Purpose: 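Knock-downs that increase output of a recombinant reporter protein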 (primary screen)
System: human HEK293 embryonic kidney cells stably expressing firefly luciferase (HEK-CMV-Luc2-Hygro)
Knock-down reagent: single siRNA against human genes, 0.8 pmol siRNA per well
Time to read-out: 72 h
Measured: 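Reporter luminescence and viable-cell signal on separate replicate plates, given as percent of non-targeting control and median/MAD z-scores, plus per-cell luciferase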
Scale: total luciferase, z-score: higher = more reporter protein produced
Active means: 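An siRNA counts as active if its total luciferase robust z-score exceeds 3; genes with two or more such siRNAs out of three were retested with fresh siRNAs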
Calls: active = raised luciferase; inactive = no rise
Here is a random part of about 59,000 reagents tested. About 1,510 of all reagents (2.6%) were called active. 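Calls use total luciferase alone and ignore viability, so some active siRNAs may act by altering cell number.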 Reagents against one gene are numbered here. Not all columns of the deposit are shown.

RNF182 #1 — total luciferase, z-score = 0.882; outcome = inactive
RNF182 #2 — total luciferase, z-score = -0.26; outcome = inactive
RNF182 #3 — total luciferase, z-score = -0.235; outcome = inactive
DEFB121 #1 — total luciferase, z-score = -0.566; outcome = inactive
DEFB121 #2 — total luciferase, z-score = 0.71; outcome = inactive
DEFB121 #3 — total luciferase, z-score = -1.03; outcome = inactive
MAGEC2 #1 — total luciferase, z-score = 1.07; outcome = inactive
MAGEC2 #2 — total luciferase, z-score = -0.186; outcome = inactive
MAGEC2 #3 — total luciferase, z-score = 1.57; outcome = inactive
PPM1F #1 — total luciferase, z-score = 0.554; outcome = inactive
PPM1F #2 — total luciferase, z-score = -0.591; outcome = inactive
PPM1F #3 — total luciferase, z-score = -0.587; outcome = inactive

Laid out differently: 2 of the entries above.
DEFB121 #2
- total luciferase, z-score: 0.71
- outcome: inactive

DEFB121 #3
- total luciferase, z-score: -1.03
- outcome: inactive
